In the experiment the target is T1, AtSAP5 in Arabidopsis leaves (Arabidopsis) (UniProt Q9LHJ8).
T1 sequence: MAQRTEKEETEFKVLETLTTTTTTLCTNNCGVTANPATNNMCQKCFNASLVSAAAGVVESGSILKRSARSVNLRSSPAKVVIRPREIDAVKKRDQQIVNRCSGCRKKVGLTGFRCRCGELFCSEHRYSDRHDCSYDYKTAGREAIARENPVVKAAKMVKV
In words: affinity purification with mass spectrometry.

Results are given in words; binding and its absence hold for the method and conditions named. In cells and extracts the contact can be indirect. A yes stands for co-enrichment or nearness to the bait. Other partners may have been found.

B1: CAT2 in Arabidopsis leaves (enzyme, UniProt P25819 1-492)
chain: MDPYKYRPASSYNSPFFTTNSGAPVWNNNSSMTVGPRGPILLEDYHLVEKLANFDRERIPERVVHARGASAKGFFEVTHDISNLTCADFLRAPGVQTPVIVRFSTVIHERGSPETLRDPRGFAVKFYTREGNFDLVGNNFPVFFIRDGMKFPDMVHALKPNPKSHIQENWRILDFFSHHPESLNMFTFLFDDIGIPQDYRHMDGSGVNTYMLINKAGKAHYVKFHWKPTCGVKSLLEEDAIRVGGTNHSHATQDLYDSIAAGNYPEWKLFIQIIDPADEDKFDFDPLDVTKTWPEDILPLQPVGRMVLNKNIDNFFAENEQLAFCPAIIVPGIHYSDDKLLQTRVFSYADTQRHRLGPNYLQLPVNAPKCAHHNNHHEGFMNFMHRDEEVNYFPSRYDQVRHAEKYPTPPAVCSGKRERCIIEKENNFKEPGERYRTFTPERQERFIQRWIDALSDPRITHEIRSIWISYWSQADKSLGQKLASRLNVRPSI
B1: the binding entry was “binds”.

For the origin of these results see paper doi:10.1101/2024.09.30.615974.
